Experimental data reported in PubChem BioAssay AID540256 (National Center for Advancing Translational Sciences (NCATS), 2011).
Out of some 300,000 compounds screened, about 3,700 (1.2%) were called active. This list was built around the results that the source calls inconclusive (neither active nor inactive); the mix of calls is not that of the screen. Calls come from the whole dose curve; tested in HEK293 cells. A potency beside an inconclusive call is a rough fit, not a confirmed value.

Assay: qHTS for Inhibitors of binding or entry into cells for Lassa Virus; note: nearly all actives have a fitted effect of over 50% in size
Settings: Lassa virus pseudotype entry inhibition, cell reporter; series mostly up to 37.9 µM
Potency is the fitted concentration of half-maximal effect.

Structure (SMILES) | Potency
Nc1ccc2nc(-c3ccccn3)[nH]c2c1 | inconclusive: 0.891 µM [activator, single point]
COc1ccc(-c2cnc3c(-c4ccc(F)cc4)cnn3c2N)cc1 | inconclusive: 0.891 µM [inhibitor, single point]
Cc1ccc2cc(/C=N/NC(=O)[C@H]3C[C@@H]3c3ccccc3)c(Cl)nc2c1 | active: 0.0651 µM
COc1ccccc1N1CCN(C(=O)c2cc3c(=O)oc4ccccc4c3s2)CC1 | inactive
CC1CCN(CCOCCOc2ccc(Cl)cc2Br)CC1 | inconclusive: 16.4 µM [inhibitor, single point]
O=C(N/N=C\C=C\c1ccco1)C1COc2ccccc2O1 (centres undefined) | inconclusive: 1.26 µM [inhibitor, single point]
CCC(C)NCC(=O)Nc1ccc(-c2nc3cc(NC(=O)CNC(C)CC)ccc3o2)cc1 (centres undefined) | inconclusive: 35.5 µM [inhibitor, single point]
COc1cccc(CNC(=O)c2cc3ccc4cccnc4c3[nH]2)c1 | inconclusive: 1.41 µM [activator, partial curve, poor fit]
CCOC(=O)C1(CCOc2ccccc2)CCN(Cc2ccc(NC(C)=O)cc2)CC1 | inactive
CCOC(=O)C1CCN(C/C=C/c2ccccc2[N+](=O)[O-])CC1 | inactive
CCC(=O)N1CCc2cc(S(=O)(=O)CCC(=O)NCc3ccc(OC)cc3)ccc21 | inactive
Cc1ccc(CCCNC(=O)C2CCC(=O)N(Cc3cccc(F)c3)C2)cc1 (centres undefined) | inconclusive: 8.91 µM [inhibitor, partial curve, poor fit]
CCN(CC)S(=O)(=O)c1ccc(Cl)c(C(=O)OCC(=O)c2c(N)n(C)c(=O)n(C)c2=O)c1 | inconclusive: 35.5 µM [inhibitor, single point]
COc1ccc(C(NC(=O)c2ccc(F)cc2)c2ccccc2)cc1 (centres undefined) | inconclusive: 7.08 µM [inhibitor, partial curve]
O=C(N/N=C/c1ccc(OC(=O)c2ccccc2)cc1)c1ccc(CN2CCOCC2)cc1 | inactive
O=C(c1ccco1)N1CCCC(c2nc(-c3ccc(S(=O)(=O)NCc4ccccc4)cc3)no2)C1 (centres undefined) | inconclusive: 29.1 µM [inhibitor, single point]
CCCOc1ccc(CCc2n[nH]c(=S)n2Cc2ccccc2)cc1 | inconclusive: 29.1 µM [inhibitor, partial curve, poor fit]
COc1ccc(OCC(=O)NNC(=O)C(=O)N2CCCC2)cc1 | inconclusive: 3.55 µM [activator, single point]
O=C(O/N=C1/CCCc2occc21)c1ccccc1 | inactive
CCCNC(=O)OC[C@H]1O[C@H](CCO/N=C/[C@@H](NS(=O)(=O)c2ccc(C)cc2)[C@H](C)/C=C/CC(=O)OC)C=C[C@@H]1Oc1ccc(OC)cc1 | inconclusive: 18.4 µM [inhibitor, partial curve]
Cc1ccc(NC(=O)COC(=O)[C@@H]2CC(O)CN2S(=O)(=O)c2ccc3c(c2)OCCO3)cc1 (some centres undefined) | inactive
O=C(c1cccc2ccccc12)N1CCN(c2ccc([N+](=O)[O-])c(N3CCOCC3)c2)CC1 | inconclusive: 3.16 µM [inhibitor, partial curve, poor fit]
CCN(CC)CCNS(=O)(=O)c1ccc2[nH]cc(C(=O)O)c(=O)c2c1 | inactive

Structure (SMILES) | Potency
CC1=C(SCc2ccccc2)C(=O)c2ccccc2C1=O | inconclusive: 11.2 µM [inhibitor, partial curve, poor fit]
COc1ccccc1/C=C/C(=O)NCCC1=CCCCC1 | active: 7.94 µM
Oc1cc(NCc2cccnc2)ccc1-c1nc2ccccc2o1 | inconclusive: 2.06 µM [activator, partial curve, poor fit]
O=C1c2cccc3cccc(c23)C(=O)N1CCc1ccccc1 | inconclusive: 12.6 µM [inhibitor, single point]
CCn1c(C)nc2cc(C(=O)N/N=C/c3ccccc3C)ccc21 | inconclusive: 20 µM [inhibitor, partial curve, poor fit]
CCOC(=O)C1CCCN(S(=O)(=O)c2ccccc2)C1 (centres undefined) | inactive
O=C(c1nn2c(C(F)(F)F)cc(-c3cccs3)nc2c1Cl)N1CCCc2ccccc21 | inconclusive: 6.31 µM [inhibitor, single point]
CCOc1ccc(NC(=O)Cn2cc(C(=O)c3ccccc3)c(=O)c3cc4c(cc32)OCCO4)cc1 | inactive
CCc1ccccc1Nc1cc(C(=O)NCCCN(C)C2CCCCC2)c2ccccc2n1 | inconclusive: 31.6 µM [inhibitor, single point]
COc1cc(Nc2nc3ccccc3nc2NS(=O)(=O)c2ccc([N+](=O)[O-])cc2)cc(OC)c1OC | inconclusive: 2.82 µM [inhibitor, full curve, poor fit]
Cc1nn(Cc2ccccc2)c(Cl)c1/C=C1\NC(=S)NC1=O | inactive
Cc1ncsc1CCC(=O)N1CCCC(C(=O)c2ccc3c(c2)OCO3)C1 (centres undefined) | inconclusive: 35.5 µM [inhibitor, single point]
COC(=O)c1c(NC(=S)NNC(=O)c2ccc(Cl)s2)sc(C(=O)N(C)C)c1C | inconclusive: 3.55 µM [activator, partial curve, poor fit]
CC1(C)Nc2ccccc2C(=O)N1c1ccc(Br)cc1 | inconclusive: 35.5 µM [inhibitor, single point]
COc1ccccc1NC(=O)CC1S/C(=N/N=C2\CCCc3ccccc32)NC1=O (centres undefined) | inconclusive: 12.6 µM [inhibitor, single point]
Nc1ccc2oc(-c3cccc(Br)c3)nc2c1 | inconclusive: 12.6 µM [inhibitor, single point]
O=S(c1ccc2ccccc2c1)c1cnns1 (centres undefined) | inconclusive: 35.5 µM [inhibitor, single point]
CCOC(=O)c1cnc(SCC(=O)Nc2cccc(OC)c2)nc1N | inconclusive: 13 µM [inhibitor, partial curve]
O=S(=O)(CCNCc1ccco1)NC1CCCCC1 | inactive
Cc1ccc(N=C2C(=S)N(c3ccc(C)cc3)C(=N)N2/N=C/c2ccc(Cl)cc2)cc1 | inconclusive: 3.26 µM [activator, partial curve]
COc1ccc(Cl)cc1C(=O)NNC(=O)C1CCCO1 (centres undefined) | inconclusive: 7.94 µM [activator, partial curve, poor fit]
Cc1cnc2c(c1SCC(=O)NCc1ccccc1Cl)c(=O)n(C)c(=O)n2C | inactive
COC(=O)N/N=C/c1ccc(OCCSc2ccc(Cl)cc2)c(OC)c1 | inconclusive: 15.8 µM [inhibitor, partial curve, poor fit]

Some of these compounds in order of number of heavy atoms, descending.
Structure (SMILES) | Potency
Cc1ccc(N=C2C(=S)N(c3ccc(C)cc3)C(=N)N2/N=C/c2ccc(Cl)cc2)cc1 | inconclusive: 3.26 µM [activator, partial curve]
CCOC(=O)c1cnc(SCC(=O)Nc2cccc(OC)c2)nc1N | inconclusive: 13 µM [inhibitor, partial curve]
Cc1nn(Cc2ccccc2)c(Cl)c1/C=C1\NC(=S)NC1=O | inactive

(list continues)

Structure (SMILES) | Potency
Cc1ccc(NC(=O)c2ccc3c(c2)OCCO3)cc1S(=O)(=O)Nc1cccc(Cl)c1 | inconclusive: 35.5 µM [inhibitor, single point]
COc1ccc(O)c(CN2CCC(n3nccc3NC(=O)C3CCCC3)CC2)c1 | inactive
Cc1c(C(=O)N(C)Cc2cccc(F)c2)oc2c(Cl)cccc12 | inconclusive: 35.5 µM [inhibitor, single point]
O=C(CSc1ccccn1)Nc1ccc2c(c1)C(=O)c1ccccc1C2=O | inconclusive: 2.59 µM [activator, single point]
COc1cc(OC)c(NC(=O)Cn2cnc3nc4c(cc3c2=O)CCCC4)cc1Cl | inactive
CCc1ccc(C(=O)C(C)OC(=O)c2cccc(S(=O)(=O)N3CCOCC3)c2)cc1 (centres undefined) | inconclusive: 20 µM [inhibitor, partial curve, poor fit]
CCc1ccc(NC2Nc3cc(C)nn3S2)cc1 (centres undefined) | inconclusive: 0.517 µM [activator, partial curve, poor fit]
O=C(CN1CCOCC1)NN=C1CCCCCCCCCCC1 | inconclusive: 5.17 µM [inhibitor, single point]
CC(C)(C)c1ccc(C(=O)N2CCN(Cc3cc(=O)n4nc(-c5ccccc5F)sc4n3)CC2)cc1 | inactive
Cc1ccc(NC(=O)C2CCC(CNS(=O)(=O)c3ccc4c(c3)C(C)(C)C(=O)N4C)CC2)cc1 (centres undefined) | inconclusive: 11.2 µM [activator, single point]
O=C(NC1CCCCC1)C(=S)NCCc1ccccc1 | inactive
Cc1cc(Cl)ccc1NNC(=O)c1cccs1 | inactive
CNCCC(Oc1ccccc1C)c1ccccc1 (centres undefined) | inconclusive: 11.6 µM [inhibitor, partial curve, poor fit]
C=CC1=C(C(=O)O)N2C(=O)C(NC(=O)Cc3ccccc3)C2SC1 (centres undefined) | inactive
Cc1ccc(C2c3[nH]c4ccccc4c3CCN2C(=O)CCc2ccccc2)cc1 (centres undefined) | active: 3.16 µM
CCOc1ccccc1NC(=O)c1cccc(NC(=O)CC(c2ccccc2)c2ccccc2)c1 | inconclusive: 0.206 µM [inhibitor, full curve, poor fit]
Cc1ccc2ncccc2c1[N+](=O)[O-] | inactive
Fc1ccc(Nc2c(-c3ccco3)nc3ccccn23)cc1 | inconclusive: 1.26 µM [inhibitor, single point]
Cn1c(=O)c(=O)n(C)c2cc(S(=O)(=O)Nc3ccc(Cl)c(C(F)(F)F)c3)ccc21 | inactive
CCOc1ccc(CCNC(=O)C2CCN(Cc3nc(-c4ccccc4C)oc3C)CC2)cc1OCC | inactive
CCN(C(=O)CSc1nc2ccccc2n1CC(=O)N1CCCC(C)C1)c1ccccc1 (centres undefined) | inactive
Cn1c(N)c(C(=O)COC(=O)COc2ccccc2Cl)c(=O)n(C)c1=O | inconclusive: 0.447 µM [activator, partial curve, poor fit]
C=CCN(C(=O)c1ccc2snnc2c1)c1ccccc1 | inconclusive: 35.5 µM [inhibitor, partial curve, poor fit]
